Reference: article PMC9627524
Construct, isoform or probe ends are uncertain for at least one entry. For part of these data: Negatives hold for the conditions tested. For part of these data: At least one verdict rests on a figure or table, not on a statement of the authors.

Legend:
[1] = system: TcMYC2 (Tanacetum cinerariifolium); test: competition with a labelled probe; details: EMSA with 10 uM FAM-labeled probe, 50-fold cold competitor, recombinant protein, protein details: 6xHis (pET6HN-C, text says N-terminal frame), label: none (cold competitor)
[2] = system: TcMYC2 (Tanacetum cinerariifolium); test: EMSA; details: EMSA with 10 uM FAM-labeled probe, 50-fold cold competitor; recombinant protein; protein details: 6xHis (pET6HN-C, text says N-terminal frame)

Sequence | binding result [2] | further results
CAACTAATCACACACCGCTCTTCTTCCACCGTCCACCTACT (double strand) [TcAOC promoter mutant probe] | – | binding result ([1]; 50-fold cold mutant vs FAM-N3, shifted band recovered): no binding
CAACTAATCACACACCGCCACGTGTCCACCGTCCACCTACT (double strand) [TcAOC promoter G-box probe] | binds | –
CCTGATCTCGTCTATTTAGTGCTGTCTACTTGTTTAGTTGTGGAGTCCCGTACT (double strand) [TcGLIP promoter mutant probe] | – | binding result ([1]; 50-fold cold mutant vs FAM-N5, shifted band recovered): no binding
CCTGACAGTTGCTATTTAGTGCTGTCTACTTGTTTAGTTGTGGAGCAAATGACT (double strand) [TcGLIP promoter E-box probe] | binds | –
TTTGAAGGTCCTGTATGTAAAGTGCTAAGTGTTAAGTCAATGATTATAT (double strand) [TcCHS promoter mutant probe] | – | binding result ([1]; 50-fold cold mutant vs FAM-N1, shifted band recovered): no binding
TTTGAAGGCAAGTGATGTAAAGTGCTAAGTGTTAAGTCAATGATTATAT (double strand) [TcCHS promoter E-box probe] | binds | –
